Assay results as given in the supplement of paper PMC8291772.
± gives the standard error. Some of the results follow. This data set is noisy: repeats of one test often differ as much as different tests do.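 Every DNA sequence of one to five nucleotides was in the library. Extension ability overall was judged using a cutoff equal to the blocked version's mean plus three standard deviations; the probe detects only chains with at least seven added dT.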

Sequences of proteins named here, by UniProt entry; tags and fusion partners are left off. A change or cut given only in a name is not applied to a line headed by its entry.
UniProt P06526: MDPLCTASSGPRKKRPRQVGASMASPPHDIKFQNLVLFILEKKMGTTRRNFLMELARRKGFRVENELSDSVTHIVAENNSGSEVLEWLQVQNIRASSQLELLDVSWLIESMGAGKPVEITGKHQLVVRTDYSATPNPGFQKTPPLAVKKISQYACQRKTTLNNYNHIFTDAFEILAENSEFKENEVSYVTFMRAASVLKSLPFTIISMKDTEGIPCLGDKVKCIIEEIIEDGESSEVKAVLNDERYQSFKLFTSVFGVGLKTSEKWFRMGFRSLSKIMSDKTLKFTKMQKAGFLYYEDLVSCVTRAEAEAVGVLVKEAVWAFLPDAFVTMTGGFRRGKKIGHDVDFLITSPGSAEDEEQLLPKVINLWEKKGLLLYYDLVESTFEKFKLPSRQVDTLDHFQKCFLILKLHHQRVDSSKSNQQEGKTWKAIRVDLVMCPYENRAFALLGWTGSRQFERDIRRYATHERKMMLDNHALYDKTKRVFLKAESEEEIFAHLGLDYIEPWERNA

Target: terminal deoxynucleotidyl transferase (calf thymus) (UniProt P06526)
Test: TdT poly-dT extension signal (Cy3 hybridisation fluorescence, uncapped minus capped) (fluorescence a.u.); higher = more efficient initiation of TdT extension
Conditions: initiator chemistry: D-DNA, free 3'-OH (5'-tethered via HEG linker)
Experimental: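 All mono- to pentamer initiator sequences were made by photolithographic in situ synthesis (reverse 5'->3' direction) on glass on a single hexaethylene glycol linker. Each was made in uncapped and DMTr-dT-capped versions, about 11 replicate features each. Arrays were extended with calf thymus TdT (0.2 U/uL) and 100 uM dTTP in TdT buffer with 0.25 mM CoCl2 for 120 min at 37 C, then hybridised with an rA18-Cy3 probe at 4 C and scanned at 532 nm. The value is the mean uncapped signal minus the mean capped signal of the same sequence.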

| Sequence | TdT poly-dT extension signal |
| --- | --- |
| CATTG | 3240 ± 380 |
| ATCG | 3410 ± 380 |
| GCAC | 3120 ± 280 |
| GCAGC | 3990 ± 330 |
| CGGTT | 4650 ± 620 |
| AGTTG | 3320 ± 300 |
| ACATC | 2820 ± 340 |
| ATCCG | 3150 ± 360 |
| CCGGG | 4770 ± 650 |
| CGGGT | 4550 ± 650 |
| ATAAC | 2660 ± 410 |
| GTACG | 3510 ± 320 |
| GGCT | 3340 ± 240 |
| GTCGG | 3280 ± 380 |
| AGCTT | 3250 ± 380 |
| GGGGT | 5230 ± 630 |
| GGCCT | 4290 ± 780 |
| ATGGG | 4800 ± 480 |
| AGAA | 3010 ± 410 |
| ATCTC | 2240 ± 300 |
| TGAGA | 3750 ± 350 |
| TAGGC | 2810 ± 400 |
| TGCTA | 3570 ± 330 |
| TATT | 4260 ± 330 |

| Sequence | TdT poly-dT extension signal |
| --- | --- |
| GTCAC | 3640 ± 440 |
| TTCTG | 3830 ± 370 |
| CGAAC | 3130 ± 320 |
| ACAAC | 3090 ± 440 |
| ACCAG | 3920 ± 500 |
| AATAT | 3060 ± 430 |
| TAGTG | 3780 ± 530 |
| AATGG | 3260 ± 460 |
| CCGAT | 4540 ± 480 |
| AATGA | 2870 ± 510 |
| CGCGC | 4030 ± 310 |
| CCCAG | 4320 ± 380 |
| TTCTC | 2560 ± 280 |
| TTTGT | 4310 ± 310 |
| AGACT | 3090 ± 120 |
| TCAT | 4120 ± 290 |
| CGTAT | 4220 ± 420 |
| TCTAG | 3910 ± 330 |
| TTAG | 3840 ± 470 |
| CCGAC | 3110 ± 310 |
| CCACC | 3330 ± 230 |
| CAATC | 3120 ± 390 |
| TGTA | 3860 ± 260 |
| TCGT | 3380 ± 330 |

| Sequence | TdT poly-dT extension signal |
| --- | --- |
| ACGCT | 3360 ± 250 |
| TTTGC | 3380 ± 290 |
| CCGGA | 3940 ± 550 |
| CTCCT | 3480 ± 340 |
| CCCA | 2520 ± 590 |
| GCAAC | 3260 ± 460 |
| TCTC | 3210 ± 310 |
| CTAT | 3610 ± 330 |
| AAAGA | 5070 ± 610 |
| TTGC | 2820 ± 300 |
| GCATT | 4080 ± 500 |
| GCTC | 2720 ± 380 |
| TGGAC | 3420 ± 420 |
| ACAAA | 5290 ± 280 |
| ATGTG | 3480 ± 430 |
| CTAC | 3190 ± 290 |
| TGCAG | 4700 ± 390 |
| TTCGT | 3440 ± 370 |
| CGTGT | 3500 ± 720 |
| AACC | 3170 ± 250 |
| TGTTA | 3970 ± 400 |
| GTCCA | 3590 ± 230 |
| CCAA | 4870 ± 420 |
| AGGCC | 3010 ± 330 |

| Sequence | TdT poly-dT extension signal |
| --- | --- |
| TCCAT | 3530 ± 410 |
| GCAGA | 3930 ± 480 |
| TCGCC | 2880 ± 530 |
| TGCAT | 4590 ± 420 |
| AGACC | 2290 ± 270 |
| TCATC | 2860 ± 450 |
| CTCAG | 4010 ± 420 |
| GCGCG | 3680 ± 350 |
| TCGCT | 3060 ± 270 |
| GCGC | 3200 ± 550 |
| ATTCC | 2970 ± 190 |
| AATGT | 3590 ± 370 |
| ATGCG | 3550 ± 360 |
| TTAAG | 3870 ± 510 |
| AACAG | 3280 ± 470 |
| GGGG | 4380 ± 560 |
| CAGTC | 3710 ± 290 |
| ATCAG | 3970 ± 350 |
| TAAAT | 4940 ± 700 |
| CAGTG | 3920 ± 450 |
| TCTT | 3360 ± 330 |
| CCCGA | 4190 ± 450 |
| CCCCG | 3500 ± 360 |
| TACCA | 3940 ± 320 |

| Sequence | TdT poly-dT extension signal |
| --- | --- |
| TGCC | 2510 ± 370 |
| CAGA | 3690 ± 380 |
| GCCAG | 4070 ± 460 |
| GGTAT | 3870 ± 320 |
| TGGAA | 4200 ± 510 |
| AGCCG | 3440 ± 300 |
| ACTGG | 3730 ± 370 |
| GCGCA | 4700 ± 360 |
| CGAT | 3390 ± 370 |
| TGTAG | 3850 ± 440 |
| TAATT | 3290 ± 370 |
| GATG | 4170 ± 340 |
| TACAA | 4110 ± 460 |
| TGCA | 3740 ± 380 |
| GTCG | 3150 ± 380 |
| TAAA | 4000 ± 470 |
| AGTCT | 3190 ± 310 |
| TTCTT | 4180 ± 140 |
| GTCTA | 2770 ± 460 |
| AACTA | 3240 ± 630 |
| CCGA | 3920 ± 560 |
| TTCT | 3390 ± 310 |
| GCCGG | 3620 ± 460 |
| GTCTG | 4110 ± 320 |

| Sequence | TdT poly-dT extension signal |
| --- | --- |
| TGTC | 3640 ± 210 |
| TTTA | 3430 ± 330 |
| GTAAC | 3020 ± 410 |
| CGAA | 3790 ± 440 |
| TGCTC | 2070 ± 210 |
| GGTAG | 3340 ± 450 |
| GGGAT | 3760 ± 440 |
| CAGCC | 3480 ± 230 |
| GGCAC | 3660 ± 220 |
| AATT | 3510 ± 510 |
| GTCTC | 2750 ± 280 |
| TACT | 3080 ± 320 |
| GAGCT | 3850 ± 600 |
| CCTGG | 4420 ± 670 |
| ACGGT | 4040 ± 370 |
| CACCA | 3400 ± 370 |
| ACGTG | 3630 ± 330 |
| CCATT | 4380 ± 230 |
| CTTT | 4200 ± 510 |
| GCATG | 3450 ± 450 |
| GATGT | 3380 ± 400 |
| GATT | 3240 ± 330 |
| CAAC | 3450 ± 270 |
| TTACG | 3620 ± 370 |

| Sequence | TdT poly-dT extension signal |
| --- | --- |
| GTTGG | 3050 ± 430 |
| CAATG | 3110 ± 380 |
| TCGA | 3970 ± 520 |
| GATAC | 2510 ± 320 |
| TGCCT | 3260 ± 200 |
| TGAAT | 4750 ± 180 |
| ATTTA | 4120 ± 250 |
| AGCTC | 2430 ± 210 |
| ACATA | 4110 ± 440 |
| GACG | 3700 ± 400 |
| ACGA | 4070 ± 370 |
| GACC | 3300 ± 390 |
| CGAAT | 3180 ± 390 |
| GGAAG | 3970 ± 420 |
| CTTAA | 4370 ± 340 |
| TTTAT | 3870 ± 330 |
| CGTGA | 3970 ± 720 |
| ATAC | 2600 ± 310 |
| TTAGA | 4270 ± 500 |
| ACTCC | 2540 ± 390 |
| CGGCT | 3780 ± 290 |
| GCACC | 3060 ± 280 |
| GCCTT | 4050 ± 390 |
| AACTT | 3460 ± 350 |

| Sequence | TdT poly-dT extension signal |
| --- | --- |
| AGCGT | 4690 ± 720 |
| GGGAA | 5150 ± 430 |
| AGGT | 2900 ± 410 |
| CCGGC | 3640 ± 400 |
| ACTAT | 3790 ± 350 |
| GAAGT | 4530 ± 280 |
| CGCAG | 3680 ± 700 |
| GACTA | 3360 ± 440 |
| AACA | 3500 ± 410 |
| GTATA | 3030 ± 340 |
| TCCGA | 4640 ± 740 |
| CGTGC | 3190 ± 400 |
| ATCCC | 2560 ± 280 |
| TTCGC | 3120 ± 320 |
| CATCA | 3280 ± 290 |
| GGATG | 4040 ± 300 |
| TAAGT | 4350 ± 400 |
| TTATG | 3810 ± 360 |
| AACCA | 3220 ± 440 |
| TCACT | 3770 ± 530 |
| AGGA | 2790 ± 380 |
| TGAA | 3900 ± 450 |
| TTTGA | 4740 ± 490 |
| AACCT | 2990 ± 310 |

| Sequence | TdT poly-dT extension signal |
| --- | --- |
| TCGGC | 3690 ± 310 |
| ACTA | 3900 ± 330 |
| TTCC | 3490 ± 280 |
| AGTGT | 3960 ± 450 |
| CGGG | 3830 ± 590 |
| GCGAT | 4470 ± 520 |
| CGGCG | 5150 ± 350 |
| TGGG | 3770 ± 360 |
| GGCCG | 3720 ± 370 |
| CGGCA | 4440 ± 500 |
| TATCA | 3820 ± 210 |
| CGCGT | 4310 ± 790 |
| GCGG | 4820 ± 640 |
| AGTTT | 4220 ± 510 |
| GCCA | 3370 ± 350 |
| CGATG | 3830 ± 350 |
| AGTGG | 3030 ± 730 |
| CAGCT | 3140 ± 260 |
| AATTA | 3890 ± 480 |
| TGGTG | 3500 ± 370 |
| AGTAT | 4160 ± 500 |
| TGCGG | 3620 ± 420 |
| TCTGA | 3550 ± 340 |
